Values quoted from earlier work as cited in patent US20240127967A1.

Columns and labels:
EBOV/Mak = conditions: read-out: IC50 (Huh7); cited from earlier work
EBOV = conditions: read-out: IC50 (HepG2); cited from earlier work

| SMILES | IC50 (EBOV/Mak) [nM] | IC50 (EBOV) [nM] |
| --- | --- | --- |
| O=C1CCc2ccc(OCCCCN3CCN(c4cccc(Cl)c4Cl)CC3)cc2N1 [Aripiprazole] | 7800 | 3760 |
| CCN(CC)CCOc1ccc(C(=C(Cl)c2ccccc2)c2ccccc2)cc1 [Clomiphene] | 1960 | 760 |
